Results: the supplement of paper PMC9233669
Variants at the floor of the assay are shown more often than the library holds them.

Assays:
biotinyl-Trp-oxazolone = test: self-aminoacylation, catalytic enhancement (BWO) (fold over background); higher = more active; k-Seq, kA / k0A0; sequences stand for … in GGGAAUGGAUCCACAUCUACGAAUUC…UUCACUGCAGACUUGACGAAGCUG
In short: (§1)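 Mutagenized RNA pools with a 21-nt variable region (0.43 μM) were reacted with each biotinyl-aminoacyl-oxazolone at 2–1250 μM for 90 minutes at room temperature, in 50 μL HEPES/NaCl/KCl/MgCl2/CaCl2 buffer containing 5% acetonitrile at pH 6.9–7.0. RNA captured on streptavidin was quantified by triplicate qPCR and by Illumina sequencing. The fraction reacted for each sequence was fit to a pseudo-first-order model with bootstrapping, and catalytic enhancement is the median kA divided by the uncatalyzed rate, taken as the low-activity peak of a bimodal Gaussian fit.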

biotinyl-Leu-oxazolone = test: self-aminoacylation, catalytic enhancement (BLO) (fold over background); higher = more active; k-Seq, kA / k0A0; sequences stand for … in GGGAAUGGAUCCACAUCUACGAAUUC…UUCACUGCAGACUUGACGAAGCUG
In short: as §1

biotinyl-Val-oxazolone = test: self-aminoacylation, catalytic enhancement (BVO) (fold over background); higher = more active; k-Seq, kA / k0A0; sequences stand for … in GGGAAUGGAUCCACAUCUACGAAUUC…UUCACUGCAGACUUGACGAAGCUG
In short: as §1

biotinyl-Ile-oxazolone = test: self-aminoacylation, catalytic enhancement (BIO) (fold over background); higher = more active; k-Seq, kA / k0A0; sequences stand for … in GGGAAUGGAUCCACAUCUACGAAUUC…UUCACUGCAGACUUGACGAAGCUG
In short: as §1

biotinyl-Met-oxazolone = test: self-aminoacylation, catalytic enhancement (BMO) (fold over background); higher = more active; k-Seq, kA / k0A0; sequences stand for … in GGGAAUGGAUCCACAUCUACGAAUUC…UUCACUGCAGACUUGACGAAGCUG
In short: as §1

biotinyl-Phe-oxazolone = test: self-aminoacylation, catalytic enhancement (BFO) (fold over background); higher = more active; k-Seq, kA / k0A0; sequences stand for … in GGGAAUGGAUCCACAUCUACGAAUUC…UUCACUGCAGACUUGACGAAGCUG
In short: as §1

| Sequence | self-aminoacylation (biotinyl-Trp-oxazolone) | self-aminoacylation (biotinyl-Leu-oxazolone) | self-aminoacylation (biotinyl-Val-oxazolone) | self-aminoacylation (biotinyl-Ile-oxazolone) | self-aminoacylation (biotinyl-Met-oxazolone) | self-aminoacylation (biotinyl-Phe-oxazolone) |
| --- | --- | --- | --- | --- | --- | --- |
| CCAUAAUUCAAGCAAUCGGUC [Fam1B.1 aminoacylation ribozyme variant] | 0.803 | 0.802 | 0.83 | 0.934 | 0.799 | 1.25 |
| CCAUACUUCAAGCAAUCGUUC [Fam1B.1 aminoacylation ribozyme variant] | 0.648 | 0.724 | 0.986 | 0.89 | 0.74 | 1.17 |
| CCAUACUUCAAGCAGUCGGUC [Fam1B.1 aminoacylation ribozyme variant] | 0.754 | 0.907 | 0.978 | 1.04 | 0.911 | 0.922 |
| CCAUACUUCAAGCAUUCGGUC [Fam1B.1 aminoacylation ribozyme variant] | 1.49 | 1.43 | 1.46 | 1.63 | 1.41 | 0.862 |
| CCAUAUUUCAAGCAAUCGGUC [Fam1B.1 aminoacylation ribozyme variant] | 0.917 | 0.92 | 1 | 1.12 | 0.965 | 1.26 |
| CCCCACUUCAAGCAAUUGGUC [Fam1B.1 aminoacylation ribozyme variant] | 1.61 | 0.878 | 0.977 | 0.92 | 0.861 | 1.82 |
| CCUCACUUCAAGCAAUCGGUU [Fam1B.1 aminoacylation ribozyme variant] | 6.83 | 1.7 | 1.61 | 1.34 | 1.45 | 9.36 |
| CCUCACUUCAAGCAAUGGGUC [Fam1B.1 aminoacylation ribozyme variant] | 0.752 | 0.574 | 0.752 | 0.601 | 0.574 | 1.12 |
| CCUCACUUCAAGCACUCGGUC [Fam1B.1 aminoacylation ribozyme variant] | 1.01 | 1.17 | 0.948 | 1.03 | 0.958 | 1.03 |
| CCUCACUUCAAGCCAUCGGUC [Fam1B.1 aminoacylation ribozyme variant] | 0.951 | 0.988 | 0.954 | 0.943 | 0.917 | 1.22 |
| CCUCAUUUCAAGCAAUCGGUC [Fam1B.1 aminoacylation ribozyme variant] | 2.75 | 1.08 | 1.05 | 1.11 | 1.07 | 5.96 |
| CGACACGUCAAGCAAUCGGUC [Fam1B.1 aminoacylation ribozyme variant] | 1.34 | 1.03 | 1.64 | 1.6 | 1.21 | 0.887 |
| CGACACUUCAAGCAACCGGUC [Fam1B.1 aminoacylation ribozyme variant] | 1.08 | 0.733 | 1.15 | 1.05 | 1.33 | 1.5 |
| CGACUCCAAACAAUCGGUCUG [Fam1A.1 aminoacylation ribozyme variant] | 3.11 | 1.14 | 1.46 | 1.1 | 1.18 | 3.55 |
| CGACUUCAAACAAUCGUUCUG [Fam1A.1 aminoacylation ribozyme variant] | 0.925 | 0.686 | 0.674 | 0.773 | 0.677 | 1.74 |
| CGACUUCAAACAGUCGGUCUG [Fam1A.1 aminoacylation ribozyme variant] | 1.98 | 1.63 | 1.84 | 1.83 | 1.71 | 10 |
| CGACUUGAAACAAUCGGUCUG [Fam1A.1 aminoacylation ribozyme variant] | 1.54 | 1.54 | 1.57 | 1.34 | 1.25 | 0.925 |
| CUAAUUCAAACACUCGGUCUG [Fam1A.1 aminoacylation ribozyme variant] | 0.625 | 0.913 | 0.955 | 0.918 | 0.846 | 0.867 |
| CUAAUUCGAACAAUCGGUCUG [Fam1A.1 aminoacylation ribozyme variant] | 0.472 | 0.815 | 0.674 | 0.625 | 0.646 | 0.492 |
| CUACACGUCAAGCAAUCGGUC [Fam1B.1 aminoacylation ribozyme variant] | 0.808 | 1.14 | 0.919 | 0.902 | 0.979 | 0.617 |
| CUACACUGCAAGCAAUCGGUC [Fam1B.1 aminoacylation ribozyme variant] | 0.703 | 0.85 | 0.932 | 0.977 | 0.756 | 0.895 |
